Literature values in patent US20130243872A1, “PHARMACEUTICAL COMPOSITE FORMULATION COMPRISING HMG-COA REDUCTASE INHIBITOR AND ASPIRIN” (HANMI SCIENCE CO., LTD, priority 2010, published 2013).

Settings: crystalline versus amorphous form

SMILES: CC(C)c1c(C(=O)Nc2ccccc2)c(-c2ccccc2)c(-c2ccc(F)cc2)n1CC[C@@H](O)C[C@@H](O)CC(=O)O [crystalline form of atorvastatin, atorvastatin]
- Increase in Cmax (in vivo absorption rate): ~50%
